The assay deals with Hsp82-Gal4 DNA-binding domain (BD) fusion (S. cerevisiae) (UniProt P02829). As to the kind of experiment: two-hybrid; Gal4 system in mated PJ69-4 cells; quantitative GAL4 promoter-directed β-galactosidase expression; measured at 25 °C and 39 °C (heat stress); control: pBDC fusion with empty pADC.

Chains of the proteins cited; added tags and fusions are not shown.
UniProt P51534: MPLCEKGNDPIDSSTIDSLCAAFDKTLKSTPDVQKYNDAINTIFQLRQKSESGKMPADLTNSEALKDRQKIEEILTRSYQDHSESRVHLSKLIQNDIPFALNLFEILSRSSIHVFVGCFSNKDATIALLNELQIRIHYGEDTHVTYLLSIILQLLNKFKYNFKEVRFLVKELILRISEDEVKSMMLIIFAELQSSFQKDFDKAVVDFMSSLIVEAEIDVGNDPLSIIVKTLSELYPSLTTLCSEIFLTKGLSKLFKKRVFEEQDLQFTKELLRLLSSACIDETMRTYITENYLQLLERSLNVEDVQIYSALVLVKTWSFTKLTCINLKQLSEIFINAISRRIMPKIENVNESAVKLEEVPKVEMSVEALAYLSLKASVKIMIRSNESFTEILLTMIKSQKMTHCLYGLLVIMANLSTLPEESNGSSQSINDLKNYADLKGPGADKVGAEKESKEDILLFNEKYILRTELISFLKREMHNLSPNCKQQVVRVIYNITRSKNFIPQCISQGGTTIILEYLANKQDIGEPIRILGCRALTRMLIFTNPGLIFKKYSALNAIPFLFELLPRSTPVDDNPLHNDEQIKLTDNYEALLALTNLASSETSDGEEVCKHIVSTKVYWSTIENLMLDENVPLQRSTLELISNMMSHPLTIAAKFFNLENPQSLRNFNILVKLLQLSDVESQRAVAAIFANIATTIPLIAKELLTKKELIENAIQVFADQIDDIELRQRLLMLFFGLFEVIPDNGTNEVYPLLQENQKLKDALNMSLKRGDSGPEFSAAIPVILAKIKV

Results are given in words; binding and its absence hold for the method and conditions named. Some results given as binding are weak or reduced against the parent protein; the word gives no strength.

Turning to “Gal4 activator domain (AD)-She4 fusion, wild type (from UniProt P51534 1-789)”, the binding result is listed as “binds”.

Source of the values: publication PMC5225067.
